# In PubChem BioAssay AID2718 (Broad Institute, 2010):
# Protein sequences, listed by entry. Tags and fused reporters are not part of them. Lines headed by an entry give the natural chain unless they say otherwise; changes in a name come on top.
# UniProt O15379: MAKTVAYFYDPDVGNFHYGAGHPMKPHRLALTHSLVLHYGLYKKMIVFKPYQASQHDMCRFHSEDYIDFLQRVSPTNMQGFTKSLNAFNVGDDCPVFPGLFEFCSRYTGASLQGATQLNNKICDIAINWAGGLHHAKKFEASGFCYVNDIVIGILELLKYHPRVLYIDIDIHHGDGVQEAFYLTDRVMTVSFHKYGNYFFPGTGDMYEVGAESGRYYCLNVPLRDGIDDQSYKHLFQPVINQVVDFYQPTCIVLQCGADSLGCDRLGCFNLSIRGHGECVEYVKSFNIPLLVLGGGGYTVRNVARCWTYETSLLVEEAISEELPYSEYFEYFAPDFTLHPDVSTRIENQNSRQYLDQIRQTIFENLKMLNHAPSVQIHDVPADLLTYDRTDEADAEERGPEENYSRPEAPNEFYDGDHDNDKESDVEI
# Out of some 320,000 compounds screened, about 480 (0.15%) were called active. Inconclusive means that the source gave no clear call. Such entries were picked first, then a sample of the others. Rule as the data show it: active = inhibition above about 26% (passing the limit was not always enough); inconclusive = no clear call, values can overlap the other calls.
# Biological target: Histone deacetylase 3 (Homo sapiens) (UniProt O15379)
# Assay: HDAC3 deacetylase inhibitors, primary screen, biochemical, fluorescence, cell-free homogeneous (AID 2718)
# Conditions: recombinant HDAC3, fluorogenic peptide/trypsin coupled, at 8.3 µM, stronger effect = higher value
row,SMILES,inhibition
1,Cc1ccccc1C(=O)OC1OC(=O)C(Cl)=C1Nc1ccc(C(=O)O)cc1 (stereo not given),inconclusive: 21.1%
2,CCOc1ccc(-c2cc(N)n(S(=O)(=O)c3ccc(OC)cc3)n2)cc1,inconclusive: 25%
3,CN(C(=O)COC(=O)C1CCN(S(=O)(=O)c2cccs2)CC1)c1ccccc1,inconclusive: 13.4%
4,COc1cc2cc(CN(CCCN3CCOCC3)C(=O)Nc3ccccc3F)c(=O)[nH]c2cc1OC,inactive: -0.253%
5,COC(C(=O)Nc1ccnn1C1CCN(Cc2cccc(C)n2)CC1)c1ccccc1 (stereo not given),inconclusive: 18.6%
6,C[C@H](NC(=O)c1nc[nH]c1C(=O)N[C@@H](Cc1ccccc1)C(=O)OCc1ccccc1)C(=O)OC(C)(C)C,active: 31%
7,CCC(=O)c1ccc(OCC(=O)OCC(=O)c2cc(C)n(C3CC3)c2C)cc1,inactive: 3.58%
8,COc1ccc(N2CCN(C(=O)C3CCCN3S(=O)(=O)c3cccc4nsnc34)CC2)cc1 (stereo not given),inconclusive: 18.7%
9,Cc1[nH]c(=S)sc1Cc1ccc(Cl)c(Cl)c1,inconclusive: 18.5%
10,Cc1ccc(C(=O)n2cnnc2N)cc1C,inconclusive: 25.1%
11,CNC(=O)c1ccc(NC(=O)C2CCN(c3ncnc4sc(C)c(C)c34)CC2)cc1,inactive: 4.09%
12,Cc1ccc(Nc2nnc(SCC(=O)Nc3cc(C(=O)O)ccc3C)s2)c(C)c1,inactive: -3%
13,Oc1ccc(C(=S)N2CCCCC2)cc1,inactive: 6.58%
14,Cc1ccc(S(=O)(=O)c2cn(C)c3cc(N4CCOCC4)c(F)cc3c2=O)cc1,inconclusive: 15.4%
15,CCCC(=O)Nc1ccc(NC(=O)c2ccco2)c(OC)c1,inconclusive: 21.9%
16,Cc1cc(C)n2nc(C(=O)Nc3cc(S(=O)(=O)N4CCCCC4)ccc3C)nc2n1,inconclusive: 21.3%
17,Cc1cccc(Nc2ncnc3c2cnn3Cc2ccccc2)c1,inconclusive: 31.2%
18,CCCc1nn(C(=O)c2ccccc2)c2c1C(=O)CC(C)(C)C2,active: 71.7%
19,O=C1c2ccccc2S(=O)(=O)c2cc(C(=O)N3CCN(c4ccccc4)CC3)ccc21,inconclusive: 12.9%
20,CCCC(C(=O)n1nc(C)cc1C)C(NS(=O)(=O)c1ccc(C)cc1)c1ccccc1 (stereo not given),inconclusive: 24.7%
21,O=C(c1ccccn1)N1CCN(S(=O)(=O)c2ccccc2)CC1,inactive: 5.04%
22,Cc1csc(N(C(=O)CCNC(=O)c2ccc([N+](=O)[O-])cc2)c2ccccc2)n1,inconclusive: 21.9%
23,COc1cccc(S(=O)(=O)Nc2cccc(C(=O)N3CCOCC3)c2)c1,inactive: -1.55%
24,COc1ccc(NC(=S)NNC(=S)Nc2cccc(C(F)(F)F)c2)cc1,active: 27.9%
25,CCOC(=O)C1=C(COC(=O)C(CC)c2ccccc2)NC(=O)NC1C (stereo not given),inactive: 1.67%
26,Cc1ccc(SCc2ccc(C(=O)NCc3ccncc3)cc2)cc1,inconclusive: 10.6%
27,CC1=N/C(=C\c2ccc3c(c2)OCO3)C(=O)N1c1ccc(C(=O)O)cc1,inconclusive: 27.5%
28,CCCCCCSc1ccc([C@H]2N[C@@](C)(C(=O)OC)[C@H]3C(=O)N(CC)C(=O)[C@@H]23)cc1,inconclusive: 19.5%

# Individual results from the list.
# inhibition, Cc1cccc(Nc2ncnc3c2cnn3Cc2ccccc2)c1 is entered as inconclusive: 31.2%
# inhibition, Cc1[nH]c(=S)sc1Cc1ccc(Cl)c(Cl)c1 is entered as inconclusive: 18.5%
# inhibition, COc1ccc(NC(=S)NNC(=S)Nc2cccc(C(F)(F)F)c2)cc1 is entered as active: 27.9%

# (further entries)

row,SMILES,inhibition
1,CCOc1ccccc1/C=c1\sc2ncnn2c1=O,inactive: 5.53%
2,O=C(Nc1ccccc1C(=O)Nc1ccccc1)c1ccccc1Br,inactive: 1.14%
3,O=C1OCCC1Sc1nc2ccccc2s1 (stereo not given),inactive: 1.42%
4,O=C(CSC1=NCCS1)NC(c1ccccc1)c1ccccc1,inconclusive: 23.8%
5,COC(=O)c1ccc(NC(=O)COC(=O)COc2cccc3c2OC(C)(C)C3)cc1,inactive: 1.59%
6,CCOc1ccccc1CN1CCC(CO)(CCOc2ccccc2)CC1,inconclusive: 14.5%
7,C=CCN1CCN(C(c2ccccc2OC)c2nnnn2C(C)(C)C)CC1 (stereo not given),inconclusive: 16.9%
8,O=C(CC(C(=O)O)c1cccc(Cl)c1Cl)c1ccccc1 (stereo not given),inactive: -6.26%
9,C=CCc1c(C)nc(-c2ccccc2)nc1N/N=C/c1ccncc1,inactive: 7.4%
10,CCN(CC)S(=O)(=O)c1cccc(-c2nn(-c3ccccc3)cc2/C=C(\C#N)C(=O)NCc2ccco2)c1,inactive: 10.1%
11,CC(NC(=O)COC(=O)C1CC1C)c1ccccc1 (stereo not given),inconclusive: 11.4%
12,C=CCNC(=O)C1CCCN(S(C)(=O)=O)C1 (stereo not given),inconclusive: 31.7%
13,COc1ccc([N+](=O)[O-])cc1N1C(=O)c2cccnc2C1=O,inactive: 7.83%
14,COC(=O)c1ccc(CSc2nnc(Nc3cccc(OC)c3)s2)o1,inconclusive: 22.7%
15,COC(=O)c1ccc(O)c(Sc2cc(C(=O)OC)ccc2O)c1,inconclusive: 6.58%
16,C=CCC[C@H](Cc1ccc(F)cc1)C(=O)OC[C@@H](Cc1c[nH]c2ccccc12)NC(=O)[C@H](CC=C)CC(=O)NCCO,inconclusive: 13.2%
17,Cc1ccc(C)c(OCC(=O)O/N=C(\N)c2ccccn2)c1,inconclusive: 16.7%
18,S=C1NCCOCCOCCOCCNC(=S)N2CCOCCOCCN1CCOCCOCC2,inconclusive: 15.3%
19,O=C(Nc1ccccc1)OCCN1CCN(Cc2ccccc2)CCC1=O,inactive: -0.493%
20,Cc1ccc(S(=O)(=O)Nc2cccc(CP(=O)(c3ccccc3)c3ccccc3)c2)cc1,inconclusive: 5.81%
21,CN(C)c1ccc(C2C3C(=O)N(c4ccc(C(=O)O)cc4)C(=O)C3ON2c2ccccc2)cc1 (stereo not given),inconclusive: 12.4%
22,C/C(Cl)=C\COc1cc(C)nc2c(Br)cccc12,inconclusive: 18.3%
23,O=C1NC2(CCCCCC2)C(=O)N1Cc1ccccc1Br,inconclusive: 13.4%
24,Cc1nn2c(-c3ccccc3)ccnc2c1Br,inconclusive: 17.8%
25,O=C(Nc1ccc2c(c1)OCCO2)c1c[nH]c(=O)n(-c2ccc(F)c(Cl)c2)c1=O,inconclusive: 12.3%
26,O=S(=O)(c1ccc2c(c1)OCCO2)C1CCC(S(=O)(=O)c2c(F)cccc2F)CC1 (stereo not given),active: 40.2%
27,CN(CCO)c1ccc(C=NNc2ccc([N+](=O)[O-])cc2S(=O)(=O)Nc2ccccc2C(=O)O)cc1,inconclusive: 16.7%
